In the supplement of paper PMC10849652 one finds log2 fold change data, which are given here for 23 targets.

By UniProt entry, the sequences of proteins in these tests, tags left out. Where a name states a change or a piece, a line headed by the entry shows the natural chain unless it says otherwise.
UniProt Q8TBQ9: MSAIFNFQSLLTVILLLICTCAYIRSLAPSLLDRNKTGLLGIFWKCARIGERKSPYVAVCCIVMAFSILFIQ
UniProt Q03167: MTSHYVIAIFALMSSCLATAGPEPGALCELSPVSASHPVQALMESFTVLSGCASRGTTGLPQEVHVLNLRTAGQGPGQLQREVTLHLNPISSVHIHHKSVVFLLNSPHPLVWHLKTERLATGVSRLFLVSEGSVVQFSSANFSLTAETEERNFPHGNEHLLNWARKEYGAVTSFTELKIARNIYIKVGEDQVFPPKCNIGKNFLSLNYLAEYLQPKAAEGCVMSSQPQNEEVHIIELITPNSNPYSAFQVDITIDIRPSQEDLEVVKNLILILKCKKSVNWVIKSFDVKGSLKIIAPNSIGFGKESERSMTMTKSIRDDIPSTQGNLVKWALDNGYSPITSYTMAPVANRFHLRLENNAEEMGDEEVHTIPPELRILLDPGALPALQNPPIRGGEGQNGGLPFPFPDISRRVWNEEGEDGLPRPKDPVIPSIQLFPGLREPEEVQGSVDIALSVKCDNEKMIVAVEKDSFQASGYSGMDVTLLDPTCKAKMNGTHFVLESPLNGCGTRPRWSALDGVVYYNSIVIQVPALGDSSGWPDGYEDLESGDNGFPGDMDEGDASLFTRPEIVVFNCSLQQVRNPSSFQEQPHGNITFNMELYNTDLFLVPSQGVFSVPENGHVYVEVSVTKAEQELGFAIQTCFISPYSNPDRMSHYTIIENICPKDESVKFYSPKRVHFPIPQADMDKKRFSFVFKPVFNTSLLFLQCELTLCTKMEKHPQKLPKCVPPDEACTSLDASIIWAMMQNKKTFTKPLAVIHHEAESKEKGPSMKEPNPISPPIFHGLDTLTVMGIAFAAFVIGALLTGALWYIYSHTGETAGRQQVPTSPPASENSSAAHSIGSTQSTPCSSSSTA
UniProt Q9BVK6: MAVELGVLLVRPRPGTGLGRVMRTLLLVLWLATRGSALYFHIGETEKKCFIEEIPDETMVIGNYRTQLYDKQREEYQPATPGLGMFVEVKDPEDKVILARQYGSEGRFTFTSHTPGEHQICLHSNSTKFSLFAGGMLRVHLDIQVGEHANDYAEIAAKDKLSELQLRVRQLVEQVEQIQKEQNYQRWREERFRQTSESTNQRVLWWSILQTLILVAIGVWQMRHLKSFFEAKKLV
UniProt Q3LXA3: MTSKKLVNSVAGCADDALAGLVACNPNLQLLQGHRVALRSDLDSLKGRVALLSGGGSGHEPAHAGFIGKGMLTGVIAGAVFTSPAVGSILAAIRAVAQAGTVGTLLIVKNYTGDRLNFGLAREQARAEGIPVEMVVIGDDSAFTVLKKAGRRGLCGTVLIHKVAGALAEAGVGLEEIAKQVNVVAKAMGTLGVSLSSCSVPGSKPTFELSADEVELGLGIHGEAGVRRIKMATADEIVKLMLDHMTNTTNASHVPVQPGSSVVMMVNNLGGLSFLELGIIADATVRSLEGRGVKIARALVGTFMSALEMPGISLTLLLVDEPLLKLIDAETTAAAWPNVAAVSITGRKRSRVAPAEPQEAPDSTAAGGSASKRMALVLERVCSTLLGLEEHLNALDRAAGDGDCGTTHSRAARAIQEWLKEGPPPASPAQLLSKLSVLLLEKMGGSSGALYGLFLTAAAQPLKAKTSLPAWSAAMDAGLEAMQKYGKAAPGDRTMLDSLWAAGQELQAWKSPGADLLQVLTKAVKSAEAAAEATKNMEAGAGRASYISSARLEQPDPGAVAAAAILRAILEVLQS
UniProt Q9BVC6: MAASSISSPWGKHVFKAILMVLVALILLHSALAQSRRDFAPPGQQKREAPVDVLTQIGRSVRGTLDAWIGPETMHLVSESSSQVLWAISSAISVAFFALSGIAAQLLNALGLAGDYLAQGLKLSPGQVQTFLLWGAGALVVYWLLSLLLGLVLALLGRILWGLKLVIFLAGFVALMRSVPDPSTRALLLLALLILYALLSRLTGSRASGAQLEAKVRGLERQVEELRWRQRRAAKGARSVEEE
UniProt Q9NR96: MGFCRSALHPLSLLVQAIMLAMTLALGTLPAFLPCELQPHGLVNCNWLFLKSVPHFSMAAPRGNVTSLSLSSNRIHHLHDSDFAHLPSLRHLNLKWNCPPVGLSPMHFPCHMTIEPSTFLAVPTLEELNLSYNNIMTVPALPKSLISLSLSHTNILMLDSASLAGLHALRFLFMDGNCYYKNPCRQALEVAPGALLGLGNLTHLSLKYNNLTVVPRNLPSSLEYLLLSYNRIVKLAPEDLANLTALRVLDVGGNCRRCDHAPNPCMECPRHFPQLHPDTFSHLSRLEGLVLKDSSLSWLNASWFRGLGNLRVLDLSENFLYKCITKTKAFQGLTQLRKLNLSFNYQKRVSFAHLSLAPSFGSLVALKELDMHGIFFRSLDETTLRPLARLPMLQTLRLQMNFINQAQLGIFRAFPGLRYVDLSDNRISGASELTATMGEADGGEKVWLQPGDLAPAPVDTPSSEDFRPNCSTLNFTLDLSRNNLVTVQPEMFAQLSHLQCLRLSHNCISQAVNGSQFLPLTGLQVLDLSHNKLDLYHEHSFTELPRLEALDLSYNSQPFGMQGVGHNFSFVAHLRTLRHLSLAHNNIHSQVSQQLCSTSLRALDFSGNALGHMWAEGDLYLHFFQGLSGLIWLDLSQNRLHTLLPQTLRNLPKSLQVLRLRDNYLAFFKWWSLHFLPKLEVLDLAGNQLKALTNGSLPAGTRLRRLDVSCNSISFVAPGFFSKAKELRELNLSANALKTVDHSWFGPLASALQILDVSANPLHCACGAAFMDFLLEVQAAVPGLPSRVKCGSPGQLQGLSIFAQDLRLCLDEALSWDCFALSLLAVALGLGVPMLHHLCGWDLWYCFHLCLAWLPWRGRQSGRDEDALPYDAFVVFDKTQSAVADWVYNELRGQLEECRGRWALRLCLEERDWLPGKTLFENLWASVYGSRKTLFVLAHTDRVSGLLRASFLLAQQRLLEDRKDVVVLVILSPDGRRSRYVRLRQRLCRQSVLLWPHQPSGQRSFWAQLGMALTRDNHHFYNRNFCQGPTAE
UniProt O60220: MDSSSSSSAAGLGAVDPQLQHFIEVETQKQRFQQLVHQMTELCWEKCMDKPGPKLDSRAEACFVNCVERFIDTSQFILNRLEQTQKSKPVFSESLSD
UniProt Q9NS93: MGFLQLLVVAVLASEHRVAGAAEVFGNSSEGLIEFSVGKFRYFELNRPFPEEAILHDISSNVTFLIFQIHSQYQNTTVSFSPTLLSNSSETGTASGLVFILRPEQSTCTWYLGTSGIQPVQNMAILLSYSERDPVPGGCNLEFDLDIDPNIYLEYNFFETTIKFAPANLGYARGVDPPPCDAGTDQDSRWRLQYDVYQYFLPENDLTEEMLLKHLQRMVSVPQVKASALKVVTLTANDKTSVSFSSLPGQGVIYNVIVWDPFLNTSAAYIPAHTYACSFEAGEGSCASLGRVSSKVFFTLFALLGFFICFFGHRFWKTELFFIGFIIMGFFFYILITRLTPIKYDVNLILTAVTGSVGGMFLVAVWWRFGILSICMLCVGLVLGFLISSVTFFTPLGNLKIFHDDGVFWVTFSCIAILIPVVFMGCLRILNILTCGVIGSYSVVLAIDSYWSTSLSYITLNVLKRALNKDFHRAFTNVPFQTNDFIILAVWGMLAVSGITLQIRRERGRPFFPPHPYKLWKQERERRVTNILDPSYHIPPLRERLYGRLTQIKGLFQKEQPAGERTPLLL
UniProt Q96RS0: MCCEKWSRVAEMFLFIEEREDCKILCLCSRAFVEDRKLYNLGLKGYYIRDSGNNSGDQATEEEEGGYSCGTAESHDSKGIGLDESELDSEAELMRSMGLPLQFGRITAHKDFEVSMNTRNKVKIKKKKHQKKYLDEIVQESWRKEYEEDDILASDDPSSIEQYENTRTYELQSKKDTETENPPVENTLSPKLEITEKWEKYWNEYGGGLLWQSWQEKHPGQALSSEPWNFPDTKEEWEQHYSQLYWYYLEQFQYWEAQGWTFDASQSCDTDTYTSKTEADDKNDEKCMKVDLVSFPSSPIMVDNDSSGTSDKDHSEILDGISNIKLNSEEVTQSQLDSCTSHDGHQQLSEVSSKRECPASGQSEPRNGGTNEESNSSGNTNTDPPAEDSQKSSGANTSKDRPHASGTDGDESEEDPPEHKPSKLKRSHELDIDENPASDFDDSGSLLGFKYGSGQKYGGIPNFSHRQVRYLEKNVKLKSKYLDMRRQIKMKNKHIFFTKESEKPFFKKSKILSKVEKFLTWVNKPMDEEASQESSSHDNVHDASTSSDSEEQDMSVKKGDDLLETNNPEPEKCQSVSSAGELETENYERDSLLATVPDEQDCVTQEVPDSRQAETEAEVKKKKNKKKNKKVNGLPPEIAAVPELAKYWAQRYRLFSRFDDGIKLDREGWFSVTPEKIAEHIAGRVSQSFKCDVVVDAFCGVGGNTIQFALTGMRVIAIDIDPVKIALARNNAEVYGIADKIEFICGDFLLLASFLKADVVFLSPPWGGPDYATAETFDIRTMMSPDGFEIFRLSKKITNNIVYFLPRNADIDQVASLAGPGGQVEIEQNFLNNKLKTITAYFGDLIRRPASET
UniProt Q5U3C3: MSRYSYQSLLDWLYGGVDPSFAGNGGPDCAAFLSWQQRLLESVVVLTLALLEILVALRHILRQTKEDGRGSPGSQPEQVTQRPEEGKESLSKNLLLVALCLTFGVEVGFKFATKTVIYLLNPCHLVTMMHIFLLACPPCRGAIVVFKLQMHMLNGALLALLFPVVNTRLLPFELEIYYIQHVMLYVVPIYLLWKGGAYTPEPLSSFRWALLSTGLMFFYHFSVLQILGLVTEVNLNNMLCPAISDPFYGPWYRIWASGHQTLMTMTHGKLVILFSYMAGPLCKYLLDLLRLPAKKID
UniProt Q9Y5J6: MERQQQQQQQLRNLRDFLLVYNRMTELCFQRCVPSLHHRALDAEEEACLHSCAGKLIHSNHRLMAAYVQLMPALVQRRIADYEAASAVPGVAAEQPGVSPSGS
UniProt Q01085: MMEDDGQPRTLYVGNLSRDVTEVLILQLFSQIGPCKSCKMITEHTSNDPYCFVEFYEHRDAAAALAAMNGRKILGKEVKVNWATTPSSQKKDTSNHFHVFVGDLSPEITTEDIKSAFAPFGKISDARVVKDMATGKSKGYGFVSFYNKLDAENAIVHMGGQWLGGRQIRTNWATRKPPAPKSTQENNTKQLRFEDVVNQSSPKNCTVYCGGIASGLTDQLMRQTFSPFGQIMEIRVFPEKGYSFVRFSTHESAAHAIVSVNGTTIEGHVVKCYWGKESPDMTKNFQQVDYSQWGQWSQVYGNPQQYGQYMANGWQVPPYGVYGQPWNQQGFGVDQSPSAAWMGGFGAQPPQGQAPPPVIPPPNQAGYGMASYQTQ
UniProt Q5JTD0: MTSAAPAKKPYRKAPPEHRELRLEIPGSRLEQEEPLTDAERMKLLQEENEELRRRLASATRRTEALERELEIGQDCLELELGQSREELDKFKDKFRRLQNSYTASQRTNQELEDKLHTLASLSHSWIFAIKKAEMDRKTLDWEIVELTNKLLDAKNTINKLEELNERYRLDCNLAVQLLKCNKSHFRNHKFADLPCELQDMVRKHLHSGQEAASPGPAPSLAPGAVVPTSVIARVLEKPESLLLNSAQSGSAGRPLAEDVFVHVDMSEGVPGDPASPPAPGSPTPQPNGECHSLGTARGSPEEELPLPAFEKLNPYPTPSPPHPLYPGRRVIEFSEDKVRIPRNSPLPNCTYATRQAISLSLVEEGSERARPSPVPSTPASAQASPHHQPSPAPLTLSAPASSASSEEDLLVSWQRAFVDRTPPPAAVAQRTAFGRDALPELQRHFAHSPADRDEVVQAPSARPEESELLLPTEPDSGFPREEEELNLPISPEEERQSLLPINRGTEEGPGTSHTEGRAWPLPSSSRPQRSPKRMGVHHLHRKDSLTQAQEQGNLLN
UniProt Q96FV9: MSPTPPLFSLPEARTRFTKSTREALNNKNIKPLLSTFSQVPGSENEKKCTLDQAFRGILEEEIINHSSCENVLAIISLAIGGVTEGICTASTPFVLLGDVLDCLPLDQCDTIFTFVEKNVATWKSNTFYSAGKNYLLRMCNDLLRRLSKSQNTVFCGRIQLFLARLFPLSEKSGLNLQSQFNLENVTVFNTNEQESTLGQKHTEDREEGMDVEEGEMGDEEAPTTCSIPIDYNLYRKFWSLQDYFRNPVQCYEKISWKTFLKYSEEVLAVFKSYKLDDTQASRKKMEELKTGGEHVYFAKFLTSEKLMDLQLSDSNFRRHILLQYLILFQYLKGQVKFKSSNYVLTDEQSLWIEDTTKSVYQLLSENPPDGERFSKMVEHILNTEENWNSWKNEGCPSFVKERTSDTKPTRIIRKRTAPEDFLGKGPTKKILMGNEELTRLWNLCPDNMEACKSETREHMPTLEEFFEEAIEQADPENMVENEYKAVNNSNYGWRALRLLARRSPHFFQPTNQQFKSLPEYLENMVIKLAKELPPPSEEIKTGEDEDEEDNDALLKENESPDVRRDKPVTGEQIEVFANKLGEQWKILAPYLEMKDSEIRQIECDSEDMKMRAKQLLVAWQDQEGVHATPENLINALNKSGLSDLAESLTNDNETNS

This is one part of the list.

Compound in the experiment: O=C(O)c1ccc2c(c1)nc(Nc1cccc(Cl)c1)c1ccncc12 [silmitasertib]
The experiment is described as follows: log2 fold change, soluble protein after heating vs DMSO (PISA); higher = thermal stabilisation; K562 lysate, 10 uM; active = over 0.2 and 3.5 SD of the protein, either way, in both replicates (recomputed). An outline of the steps: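 To prepare the extract, K562 pellets were dounce-homogenised in PBS pH 7.4 with 1 mM MgCl2, giving crude material at 1 mg/mL protein. This was treated with 10 μM compound for 30 min, then heated in aliquots for 3 min over 48°C-58°C before pooling and addition of NP-40 to 0.5% at 4°C. Centrifugation at 21,000xg for 90 min left soluble protein in the supernatant, which TMTpro 16plex LC-MS/MS quantified with equalised channel sums. Results are log-two fold changes in thermal stability compared with solvent controls, from duplicates.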
For the target THUMPD3 (UniProt Q9BV44), the log2 fold change was inactive: -0.013.
As for TMEM167A (UniProt Q8TBQ9), the log2 fold change was inactive: -0.01.
As to TLE5 isoform 2 (UniProt Q08117), the log2 fold change is inactive: -0.043.
To TMEM167B (UniProt Q9NRX6) belongs inactive: 0.009; to TGFBR3 (UniProt Q03167), inactive: 0.002; to TMED9 (UniProt Q9BVK6), inactive: 0.006.
Regarding THEM4 (UniProt Q5T1C6), the log2 fold change is inactive: -0.006.
The result for TKFC (UniProt Q3LXA3) reads inactive: 0.009; that for TMEM109 (UniProt Q9BVC6), inactive: -0.009.
For the target TLR9 isoform 4 (UniProt Q9NR96), the log2 fold change is inactive: 0.134.
The result for TIMM8A (UniProt O60220) reads inactive: -0.062; that for TM7SF3 (UniProt Q9NS93), inactive: -0.011.
As to TGS1 (UniProt Q96RS0), the log2 fold change was inactive: 0.033.
To TMEM126A (UniProt Q9H061) belongs inactive: 0.02; to TIMM44 (UniProt O43615), inactive: 0.015; to TMEM126B (UniProt Q8IUX1), inactive: -0.009.
The result for TMC6 (UniProt Q7Z403) reads inactive: -0.121.
To TMEM164 (UniProt Q5U3C3) belongs inactive: -0.079; to TIMM10B (UniProt Q9Y5J6), inactive: 0.08; to TIAL1 isoform 2 (UniProt Q01085), inactive: 0.023.
For the target TJAP1 (UniProt Q5JTD0), the log2 fold change is inactive: 0.007.
To THOC1 (UniProt Q96FV9) belongs inactive: 0.022; to TJP2 isoform 7 (UniProt Q9UDY2), inactive: -0.021.
